These are yes or no findings as the source states them, for the method shown. Binding seen in cells or lysates may run through a third protein. These calls come from enrichment with a bait or labelling near it, and not all partners need be listed. No binding means not detected with the bait.
These substances were tested against DPF2^TAP (human) (UniProt Q92785) (assay: affinity purification with mass spectrometry; tandem affinity purification: whole cell extracts of stable Hek293 clones on IgG sepharose, TEV cleavage, pre-clearing with protein A beads, immunoprecipitation with anti-MYC (PHF10: anti-TY1), peptide elution, SDS-PAGE, silver stain, in-gel trypsin digest, nano-LC FT mass spectrometry).

Sequences of proteins named here, by UniProt entry; tags and fusion partners are left off.
UniProt Q9UQ35: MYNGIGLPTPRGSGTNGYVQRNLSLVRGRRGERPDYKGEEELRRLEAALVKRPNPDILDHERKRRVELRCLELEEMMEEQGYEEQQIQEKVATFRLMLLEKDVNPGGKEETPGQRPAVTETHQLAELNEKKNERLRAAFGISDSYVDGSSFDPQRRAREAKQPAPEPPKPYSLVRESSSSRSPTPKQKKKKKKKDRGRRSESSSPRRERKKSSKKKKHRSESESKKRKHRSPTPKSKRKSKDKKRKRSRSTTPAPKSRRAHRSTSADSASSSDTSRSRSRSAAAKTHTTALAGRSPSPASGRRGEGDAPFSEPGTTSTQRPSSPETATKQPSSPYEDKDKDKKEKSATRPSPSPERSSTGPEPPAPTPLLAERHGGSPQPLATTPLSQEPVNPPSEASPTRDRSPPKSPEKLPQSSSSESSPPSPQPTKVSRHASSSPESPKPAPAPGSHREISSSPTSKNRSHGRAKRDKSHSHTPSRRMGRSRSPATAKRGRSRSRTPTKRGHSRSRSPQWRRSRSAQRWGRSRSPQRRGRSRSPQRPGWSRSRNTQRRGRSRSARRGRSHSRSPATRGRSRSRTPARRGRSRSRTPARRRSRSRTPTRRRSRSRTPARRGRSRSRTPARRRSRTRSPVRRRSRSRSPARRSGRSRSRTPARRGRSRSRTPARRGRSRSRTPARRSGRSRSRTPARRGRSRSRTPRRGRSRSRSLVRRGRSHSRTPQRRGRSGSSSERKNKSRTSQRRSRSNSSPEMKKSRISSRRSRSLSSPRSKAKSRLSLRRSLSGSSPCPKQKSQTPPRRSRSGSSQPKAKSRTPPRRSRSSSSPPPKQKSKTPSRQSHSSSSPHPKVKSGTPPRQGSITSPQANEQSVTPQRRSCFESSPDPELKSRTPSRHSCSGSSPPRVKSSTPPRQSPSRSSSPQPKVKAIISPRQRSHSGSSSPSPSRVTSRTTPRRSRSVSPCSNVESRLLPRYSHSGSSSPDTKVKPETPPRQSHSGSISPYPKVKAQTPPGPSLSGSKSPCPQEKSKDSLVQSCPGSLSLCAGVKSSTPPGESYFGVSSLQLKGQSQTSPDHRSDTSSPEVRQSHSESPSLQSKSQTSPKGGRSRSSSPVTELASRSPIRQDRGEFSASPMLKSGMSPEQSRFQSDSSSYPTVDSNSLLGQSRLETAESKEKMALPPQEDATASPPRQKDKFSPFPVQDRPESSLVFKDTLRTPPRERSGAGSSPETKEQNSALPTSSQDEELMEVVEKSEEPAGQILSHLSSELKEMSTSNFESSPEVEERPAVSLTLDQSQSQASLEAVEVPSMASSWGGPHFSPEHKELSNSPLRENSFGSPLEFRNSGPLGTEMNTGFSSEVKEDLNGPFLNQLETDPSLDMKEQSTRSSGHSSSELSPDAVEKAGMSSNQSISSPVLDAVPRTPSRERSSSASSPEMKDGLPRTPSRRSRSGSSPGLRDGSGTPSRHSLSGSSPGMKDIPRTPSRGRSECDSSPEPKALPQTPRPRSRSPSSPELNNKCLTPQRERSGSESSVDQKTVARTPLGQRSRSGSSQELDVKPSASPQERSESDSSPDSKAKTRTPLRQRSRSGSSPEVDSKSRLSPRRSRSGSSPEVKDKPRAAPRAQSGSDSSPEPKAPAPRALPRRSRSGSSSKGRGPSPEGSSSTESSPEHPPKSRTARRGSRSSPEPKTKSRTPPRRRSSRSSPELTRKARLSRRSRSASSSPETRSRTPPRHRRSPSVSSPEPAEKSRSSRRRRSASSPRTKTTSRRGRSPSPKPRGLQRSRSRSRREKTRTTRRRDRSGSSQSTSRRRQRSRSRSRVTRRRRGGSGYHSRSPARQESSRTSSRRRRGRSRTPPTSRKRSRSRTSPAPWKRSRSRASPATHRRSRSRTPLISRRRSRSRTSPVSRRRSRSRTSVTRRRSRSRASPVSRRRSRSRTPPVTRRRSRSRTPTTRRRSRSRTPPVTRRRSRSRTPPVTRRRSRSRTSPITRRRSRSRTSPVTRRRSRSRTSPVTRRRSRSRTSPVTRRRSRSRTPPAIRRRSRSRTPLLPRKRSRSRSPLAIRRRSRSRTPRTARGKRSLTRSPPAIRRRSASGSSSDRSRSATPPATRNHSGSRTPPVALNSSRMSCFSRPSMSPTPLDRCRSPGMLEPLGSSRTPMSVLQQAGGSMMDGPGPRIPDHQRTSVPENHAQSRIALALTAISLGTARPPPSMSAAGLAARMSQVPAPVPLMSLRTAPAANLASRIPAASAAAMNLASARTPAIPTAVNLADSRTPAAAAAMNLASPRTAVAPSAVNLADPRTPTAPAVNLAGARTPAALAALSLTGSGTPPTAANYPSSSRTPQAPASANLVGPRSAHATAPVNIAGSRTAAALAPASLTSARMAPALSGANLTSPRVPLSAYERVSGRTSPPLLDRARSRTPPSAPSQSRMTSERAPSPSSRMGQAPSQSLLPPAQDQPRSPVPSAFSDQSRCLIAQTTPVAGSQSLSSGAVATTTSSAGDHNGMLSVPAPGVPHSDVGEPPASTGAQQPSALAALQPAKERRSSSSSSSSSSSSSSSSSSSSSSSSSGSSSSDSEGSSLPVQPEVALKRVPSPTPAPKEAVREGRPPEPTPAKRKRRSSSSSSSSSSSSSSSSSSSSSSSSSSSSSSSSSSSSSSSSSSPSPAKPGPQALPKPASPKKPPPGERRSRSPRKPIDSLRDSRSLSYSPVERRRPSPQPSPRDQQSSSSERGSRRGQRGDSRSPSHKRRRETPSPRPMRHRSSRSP
UniProt Q4VC05: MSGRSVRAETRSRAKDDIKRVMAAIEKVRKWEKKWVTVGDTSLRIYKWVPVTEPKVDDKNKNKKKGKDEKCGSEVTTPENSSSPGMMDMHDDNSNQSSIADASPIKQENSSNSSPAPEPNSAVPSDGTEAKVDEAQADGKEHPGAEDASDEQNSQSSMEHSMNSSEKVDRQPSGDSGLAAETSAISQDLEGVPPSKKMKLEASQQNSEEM
UniProt Q14980: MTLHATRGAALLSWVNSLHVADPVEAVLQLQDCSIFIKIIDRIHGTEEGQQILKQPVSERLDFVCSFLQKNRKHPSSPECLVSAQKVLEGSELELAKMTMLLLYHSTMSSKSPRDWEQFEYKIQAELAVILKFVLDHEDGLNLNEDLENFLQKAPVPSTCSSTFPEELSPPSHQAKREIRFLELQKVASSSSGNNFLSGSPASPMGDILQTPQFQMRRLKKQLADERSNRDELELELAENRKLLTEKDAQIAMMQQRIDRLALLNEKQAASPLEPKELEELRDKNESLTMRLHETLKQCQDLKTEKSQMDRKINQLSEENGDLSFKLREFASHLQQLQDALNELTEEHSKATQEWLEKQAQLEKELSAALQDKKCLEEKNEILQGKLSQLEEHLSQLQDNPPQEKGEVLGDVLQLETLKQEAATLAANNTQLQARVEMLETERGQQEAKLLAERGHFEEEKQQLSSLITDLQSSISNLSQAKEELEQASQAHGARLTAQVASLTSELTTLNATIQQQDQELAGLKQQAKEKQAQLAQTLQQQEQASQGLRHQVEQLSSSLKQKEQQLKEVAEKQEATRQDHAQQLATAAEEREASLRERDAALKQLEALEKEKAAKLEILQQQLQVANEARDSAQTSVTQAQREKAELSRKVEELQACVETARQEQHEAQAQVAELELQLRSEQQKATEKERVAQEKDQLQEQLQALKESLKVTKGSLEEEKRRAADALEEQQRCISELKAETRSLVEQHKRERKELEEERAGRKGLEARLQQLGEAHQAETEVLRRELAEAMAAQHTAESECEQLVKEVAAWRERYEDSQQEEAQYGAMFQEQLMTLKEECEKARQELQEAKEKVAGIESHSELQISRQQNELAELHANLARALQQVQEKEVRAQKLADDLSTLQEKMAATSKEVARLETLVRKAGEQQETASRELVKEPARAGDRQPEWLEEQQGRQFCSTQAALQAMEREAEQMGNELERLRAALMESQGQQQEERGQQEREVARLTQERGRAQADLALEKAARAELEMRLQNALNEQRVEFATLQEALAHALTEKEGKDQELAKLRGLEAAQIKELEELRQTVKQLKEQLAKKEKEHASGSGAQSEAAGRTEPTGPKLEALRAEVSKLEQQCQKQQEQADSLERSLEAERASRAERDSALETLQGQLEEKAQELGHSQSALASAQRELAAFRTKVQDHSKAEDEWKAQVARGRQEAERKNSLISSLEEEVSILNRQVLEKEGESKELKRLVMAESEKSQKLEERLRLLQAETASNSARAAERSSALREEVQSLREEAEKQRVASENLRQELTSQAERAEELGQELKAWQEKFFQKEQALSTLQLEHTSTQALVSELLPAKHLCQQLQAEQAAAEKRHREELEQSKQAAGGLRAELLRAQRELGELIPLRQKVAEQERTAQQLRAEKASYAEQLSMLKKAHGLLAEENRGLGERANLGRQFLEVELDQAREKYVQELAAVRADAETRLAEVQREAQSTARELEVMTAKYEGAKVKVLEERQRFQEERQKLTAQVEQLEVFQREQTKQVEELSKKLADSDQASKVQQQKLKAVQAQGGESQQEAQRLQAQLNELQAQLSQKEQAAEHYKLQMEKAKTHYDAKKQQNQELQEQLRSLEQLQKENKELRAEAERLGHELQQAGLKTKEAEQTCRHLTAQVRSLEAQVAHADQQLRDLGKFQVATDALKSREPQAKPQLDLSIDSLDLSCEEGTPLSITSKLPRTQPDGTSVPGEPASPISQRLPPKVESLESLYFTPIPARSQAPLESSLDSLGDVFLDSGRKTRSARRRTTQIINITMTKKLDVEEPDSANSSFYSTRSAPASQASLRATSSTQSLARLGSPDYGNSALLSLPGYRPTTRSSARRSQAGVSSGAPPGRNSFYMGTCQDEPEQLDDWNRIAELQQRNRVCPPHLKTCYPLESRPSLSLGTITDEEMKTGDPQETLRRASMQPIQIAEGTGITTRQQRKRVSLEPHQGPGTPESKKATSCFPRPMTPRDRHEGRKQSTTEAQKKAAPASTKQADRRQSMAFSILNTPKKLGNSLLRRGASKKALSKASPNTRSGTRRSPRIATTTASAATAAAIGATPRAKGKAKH
UniProt Q12824: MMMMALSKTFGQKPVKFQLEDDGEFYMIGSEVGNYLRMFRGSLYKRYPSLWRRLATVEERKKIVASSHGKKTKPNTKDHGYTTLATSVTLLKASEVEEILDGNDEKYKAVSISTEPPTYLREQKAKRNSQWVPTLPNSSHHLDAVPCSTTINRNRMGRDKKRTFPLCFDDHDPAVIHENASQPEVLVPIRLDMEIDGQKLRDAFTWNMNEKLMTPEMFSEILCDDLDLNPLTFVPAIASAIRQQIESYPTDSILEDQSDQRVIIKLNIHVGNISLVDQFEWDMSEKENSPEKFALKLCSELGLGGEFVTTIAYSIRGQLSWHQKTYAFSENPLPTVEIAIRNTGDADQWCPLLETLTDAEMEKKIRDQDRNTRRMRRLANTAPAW
UniProt Q9NPI1: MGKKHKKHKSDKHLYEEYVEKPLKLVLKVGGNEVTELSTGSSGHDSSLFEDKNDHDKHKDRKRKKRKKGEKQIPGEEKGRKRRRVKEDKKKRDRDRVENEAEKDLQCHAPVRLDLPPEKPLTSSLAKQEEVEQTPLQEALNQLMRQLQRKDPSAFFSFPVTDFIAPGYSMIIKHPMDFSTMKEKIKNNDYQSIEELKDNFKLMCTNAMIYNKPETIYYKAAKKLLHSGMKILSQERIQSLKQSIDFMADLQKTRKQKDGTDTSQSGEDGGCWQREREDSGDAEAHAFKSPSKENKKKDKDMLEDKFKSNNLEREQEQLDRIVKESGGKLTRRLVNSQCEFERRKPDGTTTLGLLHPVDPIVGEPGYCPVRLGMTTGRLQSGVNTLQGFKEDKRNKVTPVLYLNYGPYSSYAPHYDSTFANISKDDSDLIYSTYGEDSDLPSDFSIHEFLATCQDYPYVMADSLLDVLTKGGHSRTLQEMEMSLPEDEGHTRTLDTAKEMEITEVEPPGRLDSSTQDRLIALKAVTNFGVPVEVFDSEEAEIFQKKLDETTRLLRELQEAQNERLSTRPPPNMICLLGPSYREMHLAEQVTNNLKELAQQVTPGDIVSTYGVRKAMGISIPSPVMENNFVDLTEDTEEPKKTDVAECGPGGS
UniProt Q92782: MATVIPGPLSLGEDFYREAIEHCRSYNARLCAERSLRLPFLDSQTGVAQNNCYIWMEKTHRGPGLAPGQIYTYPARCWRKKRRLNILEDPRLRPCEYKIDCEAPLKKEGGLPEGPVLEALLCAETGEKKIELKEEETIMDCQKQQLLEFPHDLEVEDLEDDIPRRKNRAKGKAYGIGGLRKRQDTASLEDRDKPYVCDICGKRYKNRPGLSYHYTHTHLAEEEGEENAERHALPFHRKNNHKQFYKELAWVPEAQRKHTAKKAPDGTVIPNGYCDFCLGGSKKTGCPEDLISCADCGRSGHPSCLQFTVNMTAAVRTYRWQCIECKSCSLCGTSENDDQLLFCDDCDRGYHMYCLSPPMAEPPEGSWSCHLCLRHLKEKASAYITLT

Substance | binding
BAF57 (from UniProt Q969G3 1-411) | binds
BAF60A (from UniProt Q96GM5 1-515) | binds
BAF60C (from UniProt Q6STE5 1-483) | binds
BRM (from UniProt P51531 1-1590) | binds
SRRM2 (from UniProt Q9UQ35 1-2752) | no binding
SS18 (from UniProt Q15532 1-418) | binds

Results, then the substance that gave them:

binding | Substance
binds | BAF53A (from UniProt O96019 1-429)
binds | BAF60B (from UniProt Q92925 1-531)
binds | BAF170 (from UniProt Q8TAQ2 1-1214)
no binding | BAF180 (from UniProt Q86U86 1-1689)
binds | BCL7A (from UniProt Q4VC05 1-210)
binds | BRG1 (from UniProt P51532 1-1647)
no binding | NUMA1 (from UniProt Q14980 1-2115)
binds | SS18L1 (from UniProt O75177 1-396)

What follows are substances tested against INI1^TAP (human) (UniProt Q12824) in the same assay as above.

Substance | binding
BAF57 (from UniProt Q969G3 1-411) | binds
BAF60A (from UniProt Q96GM5 1-515) | binds
BAF155 (from UniProt Q92922 1-1105) | binds
BRD7 (from UniProt Q9NPI1 1-651) | binds
SRRM2 (from UniProt Q9UQ35 1-2752) | no binding

The remaining lines, values ahead:

binding | Substance
binds | BAF60B (from UniProt Q92925 1-531)
binds | BAF180 (from UniProt Q86U86 1-1689)
no binding | BRD9 (from UniProt Q9H8M2 1-597)
binds | BRG1 (from UniProt P51532 1-1647)
no binding | NUMA1 (from UniProt Q14980 1-2115)

These substances were tested against BCL7C^TAP (human) (UniProt Q8WUZ0) in the same assay as above.

Substance | binding
BAF57 (from UniProt Q969G3 1-411) | binds
BAF60A (from UniProt Q96GM5 1-515) | binds
BAF60C (from UniProt Q6STE5 1-483) | binds
BAF155 (from UniProt Q92922 1-1105) | binds
BRM (from UniProt P51531 1-1590) | binds
GLioma Tumor Suppressor Candidate Region gene 1 protein (from UniProt Q9NZM4 1-1560) | binds
SRRM2 (from UniProt Q9UQ35 1-2752) | no binding

Now from value to substance:

binding | Substance
binds | BAF45B (from UniProt Q92782 1-387)
binds | BAF45C (from UniProt Q92784 1-378)
binds | BAF45D (from UniProt Q92785 1-391)
binds | BAF53A (from UniProt O96019 1-429)
binds | BAF60B (from UniProt Q92925 1-531)
binds | BAF170 (from UniProt Q8TAQ2 1-1214)
binds weakly | BAF180 (from UniProt Q86U86 1-1689)
binds | BRD9 (from UniProt Q9H8M2 1-597)
binds | BRG1 (from UniProt P51532 1-1647)
no binding | NUMA1 (from UniProt Q14980 1-2115)
binds | SS18L1 (from UniProt O75177 1-396)

From paper PMC3307773
